Literature values in patent US20200265917A1, “METHODS FOR BUILDING GENOMIC NETWORKS AND USES THEREOF” (Whitehead Institute for Biomedical Research, priority 2017, published 2020).
At least one structure is not confirmed: it was looked up by name or label, or the drawing left a doubt.

System: α-syn toxicity
Details: literature (Caraveo et al., 2014; Tardiff et al., 2013)

C=CC[C@@H]1/C=C(\C)C[C@H](C)C[C@H](OC)[C@H]2O[C@@](O)(C(=O)C(=O)N3CCCC[C@H]3C(=O)O[C@H](/C(C)=C/[C@@H]3CC[C@@H](O)[C@H](OC)C3)[C@H](C)[C@@H](O)CC1=O)[C@H](C)C[C@@H]2OC [FK506]
effect on α-syn toxicity: ameliorates α-syn toxicity
